{"source": "PubChem BioAssay AID1259254, NCATS | 2017", "aim": "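Finding genes that stop cells copying their DNA twice in one cycle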 (primary screen)", "system": "human HCT116 colorectal cancer cells", "reagents": "single siRNA against human genes", "duration": "3 days", "measured": "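Nuclei stained with Hoechst and imaged; cell-cycle phase assigned by DNA content; G2 share scaled per plate, non-targeting siRNA 0%, GMNN siRNA 100%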", "direction": "G2 robust z-score and G2 cells, % of GMNN control: higher = more G2 cells, more excess DNA replication", "call rule": "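An siRNA counts as active if its G2 robust z-score lies at least 5 MADs above the screen median; here such calls match roughly 38% of GMNN control or more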", "note": "Here is a random part of about 59,000 reagents. Over the whole deposit, about 1,550 (2.6%) are marked active. 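G2 share is only a proxy for re-replication; each gene was hit by three separate siRNAs, and active genes were retested.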 Reagents against one gene are numbered here. Not all columns of the deposit are shown. Reagent sequences are not shown. Not stated in the record: the amount of reagent."}
{"target": "MTMR14", "siRNA no.": 1, "G2 robust z-score": 0.0992, "G2 cells, % of GMNN control": 3.67, "activity call": "inactive"}
{"target": "MTMR14", "siRNA no.": 2, "G2 robust z-score": -1.02, "G2 cells, % of GMNN control": -4.24, "activity call": "inactive"}
{"target": "MTMR14", "siRNA no.": 3, "G2 robust z-score": -1.25, "G2 cells, % of GMNN control": -5.81, "activity call": "inactive"}
{"target": "RMND5A", "siRNA no.": 1, "G2 robust z-score": -0.504, "G2 cells, % of GMNN control": -0.576, "activity call": "inactive"}
{"target": "RMND5A", "siRNA no.": 2, "G2 robust z-score": -0.637, "G2 cells, % of GMNN control": -1.52, "activity call": "inactive"}
{"target": "RMND5A", "siRNA no.": 3, "G2 robust z-score": 3.83, "G2 cells, % of GMNN control": 29.9, "activity call": "inactive"}
{"target": "NOS2", "siRNA no.": 1, "G2 robust z-score": 0.725, "G2 cells, % of GMNN control": 8.07, "activity call": "inactive"}
{"target": "NOS2", "siRNA no.": 2, "G2 robust z-score": -1.01, "G2 cells, % of GMNN control": -4.13, "activity call": "inactive"}
{"target": "NOS2", "siRNA no.": 3, "G2 robust z-score": -0.166, "G2 cells, % of GMNN control": 1.8, "activity call": "inactive"}
{"target": "PSG1", "siRNA no.": 1, "G2 robust z-score": -0.537, "G2 cells, % of GMNN control": -0.813, "activity call": "inactive"}
{"target": "PSG1", "siRNA no.": 2, "G2 robust z-score": -0.598, "G2 cells, % of GMNN control": -1.24, "activity call": "inactive"}
{"target": "PSG1", "siRNA no.": 3, "G2 robust z-score": 1.11, "G2 cells, % of GMNN control": 10.8, "activity call": "inactive"}

No new results follow: an excerpt of the list.
{"target": "RMND5A", "siRNA no.": 3, "G2 robust z-score": 3.83, "G2 cells, % of GMNN control": 29.9, "activity call": "inactive"}
{"target": "NOS2", "siRNA no.": 1, "G2 robust z-score": 0.725, "G2 cells, % of GMNN control": 8.07, "activity call": "inactive"}
